Taken from: PubChem BioAssay AID686937 (Drosophila RNAi Screening Center, 2013)

- Screen: 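Genes whose loss weakens secretory pathway function in fly cells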 (primary screen)
- Cells: Drosophila S2 cells expressing secreted horseradish peroxidase
- Reagent: long dsRNA against Drosophila genes
- Time to read-out: about 5.5 days (5 days dsRNA, then 12 h reporter induction)
- Conditions: reporter expression induced after 5 days of dsRNA, read 12 h later; inducer not stated
- Measurement: 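After 5 days of dsRNA and 12 h of reporter induction, medium peroxidase read by chemiluminescence and scored as per-plate z-score; higher values mean more reporter released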
- Scale: z-score: higher = more reporter secreted into medium
The screen tested about 23,000 reagents; shown is an unselected part of those that have a named target and a result. 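Reduced-secretion tags in replicate 1 do not always agree with the z-scores; no criterion for assigning the tags was given.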 Reagents against one gene are numbered here. Names joined by + are all predicted targets of the reagent. Not stated in the record: the amount of reagent.

gene	reagent	z-score, replicate 1	z-score, replicate 2	z-score, replicate 3	z-score, replicate 4	phenotype, replicate 1
CG34129	1	-0.01	0.11			
RpL9	1	-4.7	-4.54			reduced secretion
Snm1	1	0.24	0.21			
CG14647	1	0.26	0.47			
CG14647	2	0.44	-0.15			
skd	1	0.03	0.21			
CG30403	1	0.66	-0.95	-0.36	-0.02	
CG10934	1	0.38	0.33			
pit	1	-1.7	-0.32			reduced secretion
pit	2	-0.07	-0.32			
tx	1	0.17	0.45			
BORCS7 + CG13430	1	0.46	0.26			
BORCS7 + CG13430	2	-0.25	0.11			
msi	1	-0.41	-0.76			
CG13005	1	0.17	0.32			
kin17	1	-0.64	-1.5			
CG31223	1	0.18	0.31			
CG5421	1	0.01	0.27			
Hat1	1	0.29	0.57			
Or85c	1	0.22	0.18			
egh	1	-0.68	0.54			
CG2321	1	0.6	0.58			
Cpr30F	1	0.52	0.46			
CG15615	1	0.3	0.41			
CG14070	1	-0.09	0.04			
CG44838	1	-2.03	-0.56			reduced secretion
CG44838	2	0.32	0.16			
Tsp66E	1	0.28	0.4			
thr	1	0.15	0.25			
CG10376	1	-0.03	-0.08			
CG4042	1	0.29	0.14			
CG18539	1	0.32	0.13			
Pal2	1	0.29	0.3			
CG34459	1	0.06	0.06			
Smu1	1	0.28	0.3			
Sh3beta	1	0.53	0.47			
Sh3beta	2	-0.04	-0.14			
spi	1	0.13	0.22			
enok	1	-0.12	0.04			
CG8170	1	0.2	0.03			
CG14739	1	0.46	0.59			
naz	1	0.17	0.38			
naz	2	0.49	0.55			
gNacalpha	1	0.01	0.24			
Sirt1	1	0.27	0.35			
Dus4	1	0.19	0.16			
CG3528	1	0.06	-0.04			
CG17477	1	0.11	0.32			
Mocs1	1	0.28	0.36			
CG30375	1	0.48	0.49			
ValRS-m	1	0.13	0.22			
Cyp12c1	1	0.4	0.38			
eIF4E7	1	0.35	0.49			
eIF4E7	2	-3.1	0.3			reduced secretion
CG17544	1	0.42	0.36			
Dhod	1	0.34	0.28			

6 entries from above in another layout.
gene | reagent | z-score, replicate 1 | z-score, replicate 2 | z-score, replicate 3 | z-score, replicate 4 | phenotype, replicate 1
tx | 1 | 0.17 | 0.45 | – | – | –
BORCS7 + CG13430 | 1 | 0.46 | 0.26 | – | – | –
BORCS7 + CG13430 | 2 | -0.25 | 0.11 | – | – | –
msi | 1 | -0.41 | -0.76 | – | – | –
CG13005 | 1 | 0.17 | 0.32 | – | – | –
kin17 | 1 | -0.64 | -1.5 | – | – | –
